The values that follow come from US6518063.

Chains of the proteins cited; added tags and fusions are not shown. A line that says so, or that is headed by a name, gives the form on record, which may keep a tag or linker. Residues count along the entry.
UniProt Q08775, other isoform, or with tags, fused parts or gaps: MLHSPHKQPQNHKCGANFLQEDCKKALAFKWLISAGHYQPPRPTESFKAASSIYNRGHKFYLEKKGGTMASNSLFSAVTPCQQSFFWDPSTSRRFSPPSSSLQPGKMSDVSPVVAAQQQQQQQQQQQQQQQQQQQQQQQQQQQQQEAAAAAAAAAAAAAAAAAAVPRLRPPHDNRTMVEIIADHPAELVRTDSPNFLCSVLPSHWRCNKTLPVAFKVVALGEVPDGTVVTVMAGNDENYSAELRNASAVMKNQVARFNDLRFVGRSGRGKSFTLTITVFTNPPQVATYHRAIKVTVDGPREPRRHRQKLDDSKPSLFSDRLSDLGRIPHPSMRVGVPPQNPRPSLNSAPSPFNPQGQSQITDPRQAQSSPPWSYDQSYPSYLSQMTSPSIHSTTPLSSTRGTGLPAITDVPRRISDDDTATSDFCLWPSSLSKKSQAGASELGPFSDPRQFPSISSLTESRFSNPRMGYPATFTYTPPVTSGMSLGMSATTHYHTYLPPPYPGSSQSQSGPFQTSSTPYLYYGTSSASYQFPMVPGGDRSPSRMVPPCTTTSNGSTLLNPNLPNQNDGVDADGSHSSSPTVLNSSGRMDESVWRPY
UniProt Q08775, 188-607, stated change not applied: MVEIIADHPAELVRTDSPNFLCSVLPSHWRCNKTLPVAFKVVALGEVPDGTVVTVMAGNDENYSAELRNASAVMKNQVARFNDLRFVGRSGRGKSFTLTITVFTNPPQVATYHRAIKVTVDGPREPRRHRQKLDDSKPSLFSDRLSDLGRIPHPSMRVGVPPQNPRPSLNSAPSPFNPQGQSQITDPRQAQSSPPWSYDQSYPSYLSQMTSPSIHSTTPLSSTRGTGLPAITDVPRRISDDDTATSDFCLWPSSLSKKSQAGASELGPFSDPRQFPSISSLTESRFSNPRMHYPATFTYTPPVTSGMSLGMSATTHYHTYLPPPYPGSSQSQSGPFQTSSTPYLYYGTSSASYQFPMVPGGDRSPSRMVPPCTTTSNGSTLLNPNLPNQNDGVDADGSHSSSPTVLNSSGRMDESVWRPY
UniProt Q08775, 99-607, stated change not applied: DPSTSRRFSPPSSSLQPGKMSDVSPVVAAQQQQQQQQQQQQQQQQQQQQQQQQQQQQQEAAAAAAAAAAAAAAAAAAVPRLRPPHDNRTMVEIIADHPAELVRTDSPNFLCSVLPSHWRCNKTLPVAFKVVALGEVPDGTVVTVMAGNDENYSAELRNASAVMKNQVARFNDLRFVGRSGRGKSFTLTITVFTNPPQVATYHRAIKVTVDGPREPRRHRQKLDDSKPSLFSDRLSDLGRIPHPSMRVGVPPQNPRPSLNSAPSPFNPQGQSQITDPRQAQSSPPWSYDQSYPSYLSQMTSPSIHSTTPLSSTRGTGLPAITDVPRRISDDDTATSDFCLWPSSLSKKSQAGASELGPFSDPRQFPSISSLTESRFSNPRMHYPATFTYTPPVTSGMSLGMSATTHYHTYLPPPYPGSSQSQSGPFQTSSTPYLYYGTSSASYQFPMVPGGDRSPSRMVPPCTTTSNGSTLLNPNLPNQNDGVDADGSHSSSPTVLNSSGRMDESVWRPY
UniProt Q08775, 118-607, stated change not applied: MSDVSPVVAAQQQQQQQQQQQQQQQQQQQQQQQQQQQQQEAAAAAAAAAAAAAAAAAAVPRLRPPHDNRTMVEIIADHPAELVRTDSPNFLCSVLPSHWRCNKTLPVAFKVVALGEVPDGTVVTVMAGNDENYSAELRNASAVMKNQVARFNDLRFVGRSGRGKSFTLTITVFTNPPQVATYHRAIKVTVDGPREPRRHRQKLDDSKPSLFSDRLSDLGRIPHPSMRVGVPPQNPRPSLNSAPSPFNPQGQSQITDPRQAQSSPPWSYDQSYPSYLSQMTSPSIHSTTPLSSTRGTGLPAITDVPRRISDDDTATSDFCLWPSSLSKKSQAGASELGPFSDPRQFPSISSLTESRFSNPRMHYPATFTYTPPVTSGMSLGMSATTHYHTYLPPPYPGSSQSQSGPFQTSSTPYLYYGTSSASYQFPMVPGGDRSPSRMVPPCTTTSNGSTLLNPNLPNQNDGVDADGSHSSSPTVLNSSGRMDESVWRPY
UniProt Q08775, 80-607: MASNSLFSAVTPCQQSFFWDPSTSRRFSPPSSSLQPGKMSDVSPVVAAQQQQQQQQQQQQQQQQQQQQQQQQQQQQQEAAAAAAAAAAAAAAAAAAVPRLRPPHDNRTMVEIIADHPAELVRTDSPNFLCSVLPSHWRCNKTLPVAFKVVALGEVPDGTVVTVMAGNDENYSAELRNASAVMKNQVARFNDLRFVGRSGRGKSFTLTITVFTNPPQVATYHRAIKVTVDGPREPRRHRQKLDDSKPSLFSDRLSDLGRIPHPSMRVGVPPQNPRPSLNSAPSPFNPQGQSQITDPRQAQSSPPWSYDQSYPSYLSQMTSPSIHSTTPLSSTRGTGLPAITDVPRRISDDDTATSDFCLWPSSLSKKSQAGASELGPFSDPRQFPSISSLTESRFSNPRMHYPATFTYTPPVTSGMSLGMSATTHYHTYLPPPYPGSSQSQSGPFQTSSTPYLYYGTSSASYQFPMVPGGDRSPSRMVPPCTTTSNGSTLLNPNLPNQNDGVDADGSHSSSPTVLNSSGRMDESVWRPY

For some assays here: For at least one entry, the source does not settle the construct or the ends of the probe. For some assays here: A negative result means that nothing was seen under these conditions. For some assays here: Results from cells or extracts need not show a direct contact.

Data set [1] has as its target His-Osf2/Cbfa1 (Mus musculus) (UniProt Q08775). Put plainly: EMSA. The following applies: purified recombinant protein, protein details: N-terminal 6xHis (pV2a), E. coli, Ni resin, label: 32P.
Data set [2] has as its target Osf2 delta(1-38,82-96) deletion 1-38 and 82-96 (Mus musculus) (UniProt Q08775). Put plainly: binding assay. To be noted: stated capable of binding OSE2; method not stated; protein in cells; label: 32P.
The target of data set [3] is Osf2 delta1-108 deletion 1-108 (Mus musculus) (UniProt Q08775). Put plainly: binding assay. The following applies: stated capable of binding OSE2; method not stated; protein in cells; label: 32P.
Data set [4] concerns the target Osf2 delta1-19 deletion 1-19 (Mus musculus) (UniProt Q08775). Put plainly: binding assay. To be noted: stated capable of binding OSE2; method not stated; protein in cells; label: 32P.
Data set [5] has as its target Osf2 delta1-38 deletion 1-38 (Mus musculus) (UniProt Q08775). Put plainly: binding assay. The following applies: stated capable of binding OSE2; method not stated; protein in cells; label: 32P.
Data set [6] addresses Osf2 delta49-96 (QA deletion) (Mus musculus) (UniProt Q08775). Put plainly: binding assay. To be noted: stated capable of binding OSE2; method not stated; protein in cells; label: 32P.
In data set [7] the target is Osf2 delta82-96 (Mus musculus) (UniProt Q08775). Put plainly: binding assay. To be noted: stated capable of binding OSE2; method not stated; protein in cells; label: 32P.
Data set [8] has as its target Osf2 delta89-96 (Mus musculus) (UniProt Q08775). Put plainly: binding assay. The following applies: stated capable of binding OSE2; method not stated; protein in cells; label: 32P.
For data set [9], the target named is Osf2/Cbfa1 (Mus musculus) (UniProt Q08775). Put plainly: activity in cells. To be noted: p4OSE2alpha1(I)-luc, COS cells; protein in cells; protein details: pCMV5 expression; only the site is given.
[10] abbreviates: variant of Osteocalcin (OG2) OSE2.

For the sequence “AAATTTAGACTCCAACCTCAGCA (double strand) [Bsp OSE2]”, the binding result in [1] is given as “binds”.
As to “AGCTGCAATCACCAAACACAGCA (double strand) [OSE2 mutant 6]”, in data set [1] (setting [10]), the binding result is “no binding”.
“AGCTGCAATCACCAACCACAGCA (double strand) [Osteocalcin (OG2) OSE2]”: the binding result is reported as “binds” in [1] (20 mM Tris pH 8, 10 mM NaCl, 3 mM EGTA, poly(dI.dC), RT, abolished by anti-Cbfa antiserum); “binds” in data set [2]; “binds” in data set [3]; “binds” in data set [4]; “binds” in [5]; “binds” in [6]. Also, the binding result in [7] and in [8] was “binds” in each case.
On to “AGCTGCAATCACCAACCAGAGCA (double strand) [OSE2 mutant 7]”, for which the binding result in data set [1] (setting [10]) was “no binding”.
Regarding “AGCTGCAATCACCAGACACAGCA (double strand) [OSE2 mutant 4]”, in [1] (setting [10]), the binding result is recorded as “no binding”.
Same read-out and setting: under “AGCTGCAATCACCAGCCACAGCA (double strand) [OSE2 mutant 5]” stands “no binding”.
On the same count and under the same terms, to “AGCTGCAATCACCGGCCACAGCA (double strand) [OSE2 mutant 3]” belongs “no binding”; to “AGCTGCAATCACGTACCACAGCA (double strand) [OSE2 mutant 2]”, “no binding”.
“AGCTGCACGATCCAACCACAGCA (double strand) [OSE2 mutant 1]”: the binding result in data set [1] (mutation outside core, binding unaffected, variant of Osteocalcin (OG2) OSE2) is reported as “binds”.
For “CCCTTCCCACACCACCCACACAG (double strand) [alpha1(I) collagen OSE2]”, the binding result in [1] is reported as “binds”. Further, in data set [9], the “activity on this sequence” value is “active”.
In the case of “CGCCGCAATCACCTACCACAGCA (double strand) [OG1 OSE2]”, the binding result in [1] is “binds”.
Take “CGCTCTTTGTGCAAACCACACAG (double strand) [Osteopontin OSE2]”: the binding result in data set [1] is on record as “binds”.
